The target of assay [1] is ADP-ribose glycohydrolase (PARG), endogenous (human (endogenous in 293T)) (UniProt Q86W56). Kind of assay: co-IP; 293T cell lysates immunoprecipitated with anti-PARG antibodies, immunoblotted with anti-OGT and anti-PARG antibodies; endogenous proteins. (In general: In western blotting, separated proteins are transferred to a membrane and probed.)
For assay [2], the target named is Flag-PARG (human) (UniProt Q86W56). As to the kind of experiment: co-IP; cells transfected with HA-OGT and Flag-PARG plasmids; lysates immunoprecipitated with anti-HA or anti-Flag antibodies and immunoblotted.

By UniProt entry, the sequences of proteins in these tests, tags left out.
UniProt Q86W56: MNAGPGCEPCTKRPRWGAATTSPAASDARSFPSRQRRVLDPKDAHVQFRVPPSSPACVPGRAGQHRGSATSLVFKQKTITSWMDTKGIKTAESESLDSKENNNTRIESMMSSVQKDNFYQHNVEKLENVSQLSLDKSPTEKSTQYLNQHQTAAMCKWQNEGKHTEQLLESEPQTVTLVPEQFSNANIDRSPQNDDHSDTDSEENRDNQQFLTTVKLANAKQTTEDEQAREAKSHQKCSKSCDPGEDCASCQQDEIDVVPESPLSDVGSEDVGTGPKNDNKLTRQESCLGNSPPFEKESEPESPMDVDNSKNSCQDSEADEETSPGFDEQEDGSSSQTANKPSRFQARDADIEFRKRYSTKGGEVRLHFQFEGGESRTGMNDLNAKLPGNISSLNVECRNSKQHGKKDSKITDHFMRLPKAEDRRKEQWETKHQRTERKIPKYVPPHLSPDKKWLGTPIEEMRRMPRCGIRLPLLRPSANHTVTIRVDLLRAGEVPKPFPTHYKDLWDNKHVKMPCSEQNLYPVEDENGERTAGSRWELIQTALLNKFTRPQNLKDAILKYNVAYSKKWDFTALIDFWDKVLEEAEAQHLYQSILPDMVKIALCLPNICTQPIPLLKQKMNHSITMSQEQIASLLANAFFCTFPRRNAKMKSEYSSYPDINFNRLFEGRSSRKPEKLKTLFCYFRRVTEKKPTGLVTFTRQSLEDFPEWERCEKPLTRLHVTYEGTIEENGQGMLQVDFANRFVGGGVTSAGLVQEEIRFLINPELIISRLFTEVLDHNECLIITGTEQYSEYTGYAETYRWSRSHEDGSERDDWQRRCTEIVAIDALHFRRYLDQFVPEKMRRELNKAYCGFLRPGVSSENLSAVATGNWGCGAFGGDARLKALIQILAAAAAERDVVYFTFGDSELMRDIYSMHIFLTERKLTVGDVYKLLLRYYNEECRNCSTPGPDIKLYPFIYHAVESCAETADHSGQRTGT

Results are given in words; binding and its absence hold for the method and conditions named. In cells and extracts the contact can be indirect. Some results given as binding are weak or reduced against the parent protein; the word gives no strength. For some assays here: Sequences can lack the tags named with a protein.

B1: O-GlcNAc transferase (OGT), endogenous (enzyme, UniProt O15294 1-1046)
chain: MASSVGNVADSTEPTKRMLSFQGLAELAHREYQAGDFEAAERHCMQLWRQEPDNTGVLLLLSSIHFQCRRLDRSAHFSTLAIKQNPLLAEAYSNLGNVYKERGQLQEAIEHYRHALRLKPDFIDGYINLAAALVAAGDMEGAVQAYVSALQYNPDLYCVRSDLGNLLKALGRLEEAKACYLKAIETQPNFAVAWSNLGCVFNAQGEIWLAIHHFEKAVTLDPNFLDAYINLGNVLKEARIFDRAVAAYLRALSLSPNHAVVHGNLACVYYEQGLIDLAIDTYRRAIELQPHFPDAYCNLANALKEKGSVAEAEDCYNTALRLCPTHADSLNNLANIKREQGNIEEAVRLYRKALEVFPEFAAAHSNLASVLQQQGKLQEALMHYKEAIRISPTFADAYSNMGNTLKEMQDVQGALQCYTRAIQINPAFADAHSNLASIHKDSGNIPEAIASYRTALKLKPDFPDAYCNLAHCLQIVCDWTDYDERMKKLVSIVADQLEKNRLPSVHPHHSMLYPLSHGFRKAIAERHGNLCLDKINVLHKPPYEHPKDLKLSDGRLRVGYVSSDFGNHPTSHLMQSIPGMHNPDKFEVFCYALSPDDGTNFRVKVMAEANHFIDLSQIPCNGKAADRIHQDGIHILVNMNGYTKGARNELFALRPAPIQAMWLGYPGTSGALFMDYIITDQETSPAEVAEQYSEKLAYMPHTFFIGDHANMFPHLKKKAVIDFKSNGHIYDNRIVLNGIDLKAFLDSLPDVKIVKMKCPDGGDNADSSNTALNMPVIPMNTIAEAVIEMINRGQIQITINGFSISNGLATTQINNKAATGEEVPRTIIVTTRSQYGLPEDAIVYCNFNQLYKIDPSTLQMWANILKRVPNSVLWLLRFPAVGEPNIQQYAQNMGLPQNRIIFSPVAPKEEHVRRGQLADVCLDTPLCNGHTTGMDVLWAGTPMVTMPGETLASRVAASQLTCLGCLELIAKNRQEYEDIAVKLGTDLEYLKKVRGKVWKQRISSPLFNTKQYTMELERLYLQMWEHYAAGNKPDHMIKPVEVTESA
Consider B1, for which the binding entry in assay [1] is “binds”.

B2: HA-OGT (enzyme, UniProt O15294 1-1046)
chain: MASSVGNVADSTEPTKRMLSFQGLAELAHREYQAGDFEAAERHCMQLWRQEPDNTGVLLLLSSIHFQCRRLDRSAHFSTLAIKQNPLLAEAYSNLGNVYKERGQLQEAIEHYRHALRLKPDFIDGYINLAAALVAAGDMEGAVQAYVSALQYNPDLYCVRSDLGNLLKALGRLEEAKACYLKAIETQPNFAVAWSNLGCVFNAQGEIWLAIHHFEKAVTLDPNFLDAYINLGNVLKEARIFDRAVAAYLRALSLSPNHAVVHGNLACVYYEQGLIDLAIDTYRRAIELQPHFPDAYCNLANALKEKGSVAEAEDCYNTALRLCPTHADSLNNLANIKREQGNIEEAVRLYRKALEVFPEFAAAHSNLASVLQQQGKLQEALMHYKEAIRISPTFADAYSNMGNTLKEMQDVQGALQCYTRAIQINPAFADAHSNLASIHKDSGNIPEAIASYRTALKLKPDFPDAYCNLAHCLQIVCDWTDYDERMKKLVSIVADQLEKNRLPSVHPHHSMLYPLSHGFRKAIAERHGNLCLDKINVLHKPPYEHPKDLKLSDGRLRVGYVSSDFGNHPTSHLMQSIPGMHNPDKFEVFCYALSPDDGTNFRVKVMAEANHFIDLSQIPCNGKAADRIHQDGIHILVNMNGYTKGARNELFALRPAPIQAMWLGYPGTSGALFMDYIITDQETSPAEVAEQYSEKLAYMPHTFFIGDHANMFPHLKKKAVIDFKSNGHIYDNRIVLNGIDLKAFLDSLPDVKIVKMKCPDGGDNADSSNTALNMPVIPMNTIAEAVIEMINRGQIQITINGFSISNGLATTQINNKAATGEEVPRTIIVTTRSQYGLPEDAIVYCNFNQLYKIDPSTLQMWANILKRVPNSVLWLLRFPAVGEPNIQQYAQNMGLPQNRIIFSPVAPKEEHVRRGQLADVCLDTPLCNGHTTGMDVLWAGTPMVTMPGETLASRVAASQLTCLGCLELIAKNRQEYEDIAVKLGTDLEYLKKVRGKVWKQRISSPLFNTKQYTMELERLYLQMWEHYAAGNKPDHMIKPVEVTESA
For the molecule B2, the binding result in assay [2] is given as “binds”.
